One substance from article PMC9475553, “SHF Acts as a Novel Tumor Suppressor in Glioblastoma Multiforme by Disrupting STAT3 Dimerization” (Advanced Science, 2022) can be followed below.

Amino acid sequences for entries named in this document (tags omitted). Residues count along the entry.
UniProt Q7M4L6, residues 388-421: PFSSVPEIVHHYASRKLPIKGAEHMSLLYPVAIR
UniProt P40763: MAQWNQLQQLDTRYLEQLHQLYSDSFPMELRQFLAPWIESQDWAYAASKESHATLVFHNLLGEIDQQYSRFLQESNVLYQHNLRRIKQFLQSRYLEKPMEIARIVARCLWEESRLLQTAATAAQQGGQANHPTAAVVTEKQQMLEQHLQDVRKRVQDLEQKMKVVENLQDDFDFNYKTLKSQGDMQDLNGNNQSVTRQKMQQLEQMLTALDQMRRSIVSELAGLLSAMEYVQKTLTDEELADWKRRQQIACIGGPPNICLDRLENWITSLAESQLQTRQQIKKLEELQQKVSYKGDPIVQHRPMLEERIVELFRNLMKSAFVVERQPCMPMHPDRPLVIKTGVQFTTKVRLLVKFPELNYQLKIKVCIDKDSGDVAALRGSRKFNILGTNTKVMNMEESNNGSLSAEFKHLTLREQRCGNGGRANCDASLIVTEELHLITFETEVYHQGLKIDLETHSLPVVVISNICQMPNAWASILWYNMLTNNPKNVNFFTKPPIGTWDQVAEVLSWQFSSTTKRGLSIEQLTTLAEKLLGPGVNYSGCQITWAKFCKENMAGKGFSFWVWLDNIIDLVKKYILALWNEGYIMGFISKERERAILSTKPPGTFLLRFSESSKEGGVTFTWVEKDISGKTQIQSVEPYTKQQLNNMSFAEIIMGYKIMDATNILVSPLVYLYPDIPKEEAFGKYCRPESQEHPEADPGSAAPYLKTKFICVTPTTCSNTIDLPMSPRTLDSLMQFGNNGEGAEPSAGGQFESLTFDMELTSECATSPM

In the assay the target is C16 peptide (derived from the STAT3-binding sites of SHF) (human) (UniProt Q7M4L6). The assay is described as follows: pull-down; GST-STAT3 incubated with C16 or SC for 2 h, pull-down with Anti-His magnetic beads; both purified.

Results are given in words; binding and its absence hold for the method and conditions named. Some binding calls cover weakened binding; strength is not graded here.

On to GST-STAT3 (from UniProt P40763 1-770), for which the binding result was “binds”.
